# Measurements from the supplement of paper PMC8728848.
# The list shows a part of the results.
# B1: GS7807I-bvu-563-22-563 (Bacteroides vulgatus) (protein)
# chain: IFSSCTDDFEKLNTSNIQVDPADLPFAAQCTEPMTYCYPPQQNMFQFWTNLTIDLYGGYFMTPNGNFTNGDMGENRGHSGGMYENYYLHIFNNTRRIIAQCDASGERGLSGVMRIVQAYGTLMTTDAYGPIPYSSILSGENEVYFEFDSQKDLYKAMLEDLSTAITDISAMGADEIAKLKSFDCWCNGDKDLWVKIANTMKLRMALRLSKRETEAGNAGMNLKAIATEAAQNTLATVNKDILIDKSLENEMWLMFNWGDCGFNANLVTIMSGTKDPRQPLYMTLNTGDIKNEAGTTTVAANSQYLGIRFASGLPAKPNSWGNFSGWIQGNNGSSYSMPLPIMKAAEAYFLLAEAKLRWDIGSESVKNLYENGIRVSMTNELAYRGAYAGIKEYPEGAVDAYINGTSTQIDYTDPIKAELSTPAVNKLSVKWDESASNEEKLERIITQKWLALFPLSTEGWAEQRRTGYPRFFPAFVNESNGAVNTEEGVRRVIYSSQAYDANAKGVEGGIKLLDEENSSKFGISGDKGGTHLWWDNADKGNF
# Experiments:
# Test in all cases: glycan array binding signal (z-score within array); higher = stronger binding
# Conditions in all cases: glycan notation: IUPAC condensed, linker removed
# Gal(b1-4)Glc = molecular target: Gal(b1-4)Glc
# Summary of the method: (§1)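 Arrays were curated from the Consortium for Functional Glycomics database, 3228 in total, and kept only where the protein sequence was available. Binding is expressed as a within-array Z-score. This score was averaged across arrays of the same protein sequence at different concentrations or buffers and across linkers, and negative values can be read as non-binding.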
# Gal(b1-4)Glc6S = molecular target: Gal(b1-4)Glc6S
# Summary of the method: as §1
# Gal(b1-4)GlcNAc = molecular target: Gal(b1-4)GlcNAc
# Summary of the method: as §1
# [1] = molecular target: Gal(b1-4)GlcNAc(a1-6)Gal(b1-4)GlcNAc
# Summary of the method: as §1
# Gal(b1-4)GlcNAc(b1-2)Man = molecular target: Gal(b1-4)GlcNAc(b1-2)Man
# Summary of the method: as §1
# [2] = molecular target: Gal(b1-4)GlcNAc(b1-2)Man(a1-3)Man(b1-4)GlcNAc(b1-4)GlcNAc
# Summary of the method: as §1
# [3] = molecular target: Gal(b1-4)GlcNAc(b1-2)Man(a1-3)[Gal(b1-4)GlcNAc(b1-2)Man(a1-6)]Man(b1-4)GlcNAc(b1-4)GlcNAc
# Summary of the method: as §1
# [4] = molecular target: Gal(b1-4)GlcNAc(b1-2)Man(a1-3)[Gal(b1-4)GlcNAc(b1-2)Man(a1-6)]Man(b1-4)GlcNAc(b1-4)[Fuc(a1-6)]GlcNAc
# Summary of the method: as §1
# [5] = molecular target: Gal(b1-4)GlcNAc(b1-2)Man(a1-3)[Gal(b1-4)GlcNAc(b1-2)Man(a1-6)][Gal(b1-4)GlcNAc(b1-4)]Man(b1-4)GlcNAc(b1-4)[Fuc(a1-6)]GlcNAc
# Summary of the method: as §1
# [6] = molecular target: Gal(b1-4)GlcNAc(b1-2)Man(a1-3)[Gal(b1-4)GlcNAc(b1-2)Man(a1-6)][GlcNAc(b1-4)]Man(b1-4)GlcNAc(b1-4)[Fuc(a1-6)]GlcNAc
# Summary of the method: as §1
# [7] = molecular target: Gal(b1-4)GlcNAc(b1-2)Man(a1-3)[GlcNAc(b1-2)Man(a1-6)]Man(b1-4)GlcNAc(b1-4)GlcNAc
# Summary of the method: as §1
# [8] = molecular target: Gal(b1-4)GlcNAc(b1-2)Man(a1-3)[GlcNAc(b1-4)][Gal(b1-4)GlcNAc(b1-2)Man(a1-6)]Man(b1-4)GlcNAc(b1-4)GlcNAc
# Summary of the method: as §1
# [9] = molecular target: Gal(b1-4)GlcNAc(b1-2)Man(a1-3)[Man(a1-6)]Man(b1-4)GlcNAc(b1-4)GlcNAc
# Summary of the method: as §1
# [10] = molecular target: Gal(b1-4)GlcNAc(b1-2)Man(a1-6)Man(b1-4)GlcNAc(b1-4)GlcNAc
# Summary of the method: as §1
# [11] = molecular target: Gal(b1-4)GlcNAc(b1-2)Man(a1-6)[GlcNAc(b1-2)Man(a1-3)]Man(b1-4)GlcNAc(b1-4)GlcNAc
# Summary of the method: as §1
# [12] = molecular target: Gal(b1-4)GlcNAc(b1-2)Man(a1-6)[Man(a1-3)]Man(b1-4)GlcNAc(b1-4)GlcNAc
# Summary of the method: as §1
# [13] = molecular target: Gal(b1-4)GlcNAc(b1-2)[Gal(b1-4)GlcNAc(b1-4)]Man(a1-3)[Gal(b1-4)GlcNAc(b1-2)Man(a1-6)]Man(b1-4)GlcNAc(b1-4)GlcNAc
# Summary of the method: as §1
# [14] = molecular target: Gal(b1-4)GlcNAc(b1-2)[Gal(b1-4)GlcNAc(b1-4)]Man(a1-3)[Gal(b1-4)GlcNAc(b1-2)[Gal(b1-4)GlcNAc(b1-6)]Man(a1-6)]Man(b1-4)GlcNAc(b1-4)GlcNAc
# Summary of the method: as §1
# [15] = molecular target: Gal(b1-4)GlcNAc(b1-2)[Gal(b1-4)GlcNAc(b1-4)]Man(a1-3)[GlcNAc(b1-4)][Gal(b1-4)GlcNAc(b1-2)Man(a1-6)]Man(b1-4)GlcNAc(b1-4)GlcNAc
# Summary of the method: as §1
# [16] = molecular target: Gal(b1-4)GlcNAc(b1-2)[Gal(b1-4)GlcNAc(b1-4)]Man(a1-3)[GlcNAc(b1-4)][Gal(b1-4)GlcNAc(b1-2)[Gal(b1-4)GlcNAc(b1-6)]Man(a1-6)]Man(b1-4)GlcNAc(b1-4)GlcNAc
# Summary of the method: as §1
# [17] = molecular target: Gal(b1-4)GlcNAc(b1-2)[Gal(b1-4)GlcNAc(b1-6)]Man(a1-6)[Gal(b1-4)GlcNAc(b1-2)Man(a1-3)]Man(b1-4)GlcNAc(b1-4)GlcNAc
# Summary of the method: as §1
# [18] = molecular target: Gal(b1-4)GlcNAc(b1-2)[Gal(b1-4)GlcNAc(b1-6)]Man(a1-6)[Gal(b1-4)GlcNAc(b1-2)Man(a1-3)]Man(b1-4)GlcNAc(b1-4)[Fuc(a1-6)]GlcNAc
# Summary of the method: as §1
# [19] = molecular target: Gal(b1-4)GlcNAc(b1-2)[Gal(b1-4)GlcNAc(b1-6)]Man(a1-6)[GlcNAc(b1-4)][Gal(b1-4)GlcNAc(b1-2)Man(a1-3)]Man(b1-4)GlcNAc(b1-4)GlcNAc
# Summary of the method: as §1
# [20] = molecular target: Gal(b1-4)GlcNAc(b1-2)[Gal(b1-4)GlcNAc(b1-6)]Man(a1-6)[GlcNAc(b1-4)][Gal(b1-4)GlcNAc(b1-2)[Gal(b1-4)GlcNAc(b1-4)]Man(a1-3)]Man(b1-4)GlcNAc(b1-4)[Fuc(a1-6)]GlcNAc
# Summary of the method: as §1
# [21] = molecular target: Gal(b1-4)GlcNAc(b1-3)Gal(b1-3)GalNAc
# Summary of the method: as §1
# [22] = molecular target: Gal(b1-4)GlcNAc(b1-3)Gal(b1-3)GlcNAc
# Summary of the method: as §1
# [23] = molecular target: Gal(b1-4)GlcNAc(b1-3)Gal(b1-4)Glc
# Summary of the method: as §1
# [24] = molecular target: Gal(b1-4)GlcNAc(b1-3)Gal(b1-4)GlcNAc
# Summary of the method: as §1
# [25] = molecular target: Gal(b1-4)GlcNAc(b1-3)Gal(b1-4)GlcNAc(b1-2)Man(a1-3)[Gal(b1-4)GlcNAc(b1-3)Gal(b1-4)GlcNAc(b1-2)Man(a1-6)]Man(b1-4)GlcNAc(b1-4)GlcNAc
# Summary of the method: as §1
# [26] = molecular target: Gal(b1-4)GlcNAc(b1-3)Gal(b1-4)GlcNAc(b1-2)Man(a1-3)[Gal(b1-4)GlcNAc(b1-3)Gal(b1-4)GlcNAc(b1-2)Man(a1-6)]Man(b1-4)GlcNAc(b1-4)[Fuc(a1-6)]GlcNAc
# Summary of the method: as §1
binder,measurement,setting,value
B1,glycan array binding signal (z-score),Gal(b1-4)Glc,-0.352
same,glycan array binding signal (z-score),Gal(b1-4)Glc6S,0.814
same,glycan array binding signal (z-score),Gal(b1-4)GlcNAc,-0.655
same,glycan array binding signal (z-score),[1],-0.151
same,glycan array binding signal (z-score),Gal(b1-4)GlcNAc(b1-2)Man,1.61
same,glycan array binding signal (z-score),[2],-0.54
same,glycan array binding signal (z-score),[3],-0.914
same,glycan array binding signal (z-score),[4],0.927
same,glycan array binding signal (z-score),[5],0.521
same,glycan array binding signal (z-score),[6],-0.448
same,glycan array binding signal (z-score),[7],-1.36
same,glycan array binding signal (z-score),[8],-0.694
same,glycan array binding signal (z-score),[9],-0.687
same,glycan array binding signal (z-score),[10],0.492
same,glycan array binding signal (z-score),[11],-0.401
same,glycan array binding signal (z-score),[12],-0.283
same,glycan array binding signal (z-score),[13],0.564
same,glycan array binding signal (z-score),[14],0.947
same,glycan array binding signal (z-score),[15],-0.163
same,glycan array binding signal (z-score),[16],0.62
same,glycan array binding signal (z-score),[17],-0.053
same,glycan array binding signal (z-score),[18],-0.297
same,glycan array binding signal (z-score),[19],-0.385
same,glycan array binding signal (z-score),[20],1.01
same,glycan array binding signal (z-score),[21],-0.162
same,glycan array binding signal (z-score),[22],-0.847
same,glycan array binding signal (z-score),[23],-0.582
same,glycan array binding signal (z-score),[24],-1.17
same,glycan array binding signal (z-score),[25],2.07
same,glycan array binding signal (z-score),[26],0.065

# Looked up one by one from the entries so far, two records:
binder,measurement,setting,value
B1,glycan array binding signal (z-score),Gal(b1-4)Glc6S,0.814
same,glycan array binding signal (z-score),[10],0.492
